Here are results for one substance from paper PMC11108907.

The chains behind the UniProt entries cited, without tags or fusion partners.
UniProt P63159: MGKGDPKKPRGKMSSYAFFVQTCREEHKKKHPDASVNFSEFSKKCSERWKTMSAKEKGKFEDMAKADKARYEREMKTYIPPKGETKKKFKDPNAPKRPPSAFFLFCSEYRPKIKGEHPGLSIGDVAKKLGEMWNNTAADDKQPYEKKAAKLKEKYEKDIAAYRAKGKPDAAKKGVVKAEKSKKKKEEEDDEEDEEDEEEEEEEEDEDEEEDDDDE

Results are given in words; binding and its absence hold for the method and conditions named. In cells and extracts the contact can be indirect. Some results given as binding are weak or reduced against the parent protein; the word gives no strength.

For the experiment, the target named is high-mobility group box 1 (HMGB1) (rat (endogenous in SD rat brain tissue)) (UniProt P63159). Briefly: co-IP; Whole tissue lysates of rats (Control, SS, SS + LGA and SS + HGA groups) immunoprecipitated with anti-HMGB1, anti-PP2Ac or anti-PKCα antibody overnight at 4 °C, captured on protein A/G agarose beads, then immunoblotted. For orientation: Immunoblotting shows a protein as a band on a membrane.

“protein kinase C alpha (PKCα) (from UniProt P05696 1-672) (enzyme)”: the binding result is listed as “binds”.
